Drawing on the supplement of paper PMC9744312, this text covers cell viability for 47 compounds.

Counter-ions that a name gives are not always drawn. The list shows a part of the results. Single values of this set are uncertain.

This test has as its system Peyronie's disease tunica albuginea primary fibroblasts. The test can be described thus: cell viability (DRAQ5 nuclear stain) relative to TGF-beta1-only control; higher = more viable cells. To be noted: 10 µM; TGF-beta1 10 ng/mL; 72 h.
As to `COc1ccccc1N1CCN(CC(O)COc2cccc3ccccc23)CC1` (configuration not stated) [Naftopidil DiHCl], the cell viability came out at 101%.
For `COc1ccccc1N1CCN(CC(O)COc2cccc3ccccc23)CC1` (configuration not stated) [Naftopidil], the cell viability worked out at 90.2%.
With `CN1CCC(=C2c3ccccc3CC(=O)c3sccc32)CC1` [Ketotifen Fumarate] the figure was 93%.
With `COC(=O)c1ccccc1O` [Methyl salicylate] the figure was 93%.
With `N#CC(c1ccc(Cl)cc1)c1c(Cl)cc(-n2ncc(=O)[nH]c2=O)cc1Cl` (configuration not stated) [Diclazuril] the figure was 92.5%; with `OCc1cc([C@@H](O)CNCCCCCCOCCOCc2c(Cl)cccc2Cl)ccc1O` [Vilanterol Trifenate], 86.9%.
Turning to `O.O.O.O.O=C([O-])CC(O)(CC(=O)[O-])C(=O)[O-].[Li+].[Li+].[Li+]` [Citric acid trilithium salt tetrahydrate], the cell viability came out at 92.9%.
As for `COc1cc(OC)c(C(=O)CCCN2CCCC2)c(OC)c1` [Buflomedil HCl], the figure is 85%; as for `CC(C)(C)C(=O)OCOP(=O)(COCCn1cnc2c(N)ncnc21)OCOC(=O)C(C)(C)C` [Adefovir Dipivoxil], 71.7%; as for `CCOc1ccc(Cc2cc([C@@H]3O[C@H](SC)[C@@H](O)[C@H](O)[C@H]3O)ccc2Cl)cc1` [Sotagliflozin (LX4211)], 89.3%.
With `Cc1ccc(NC(=O)c2ccc(CN3CC[C@H](N(C)C)C3)c(C(F)(F)F)c2)cc1Nc1nccc(-c2cncnc2)n1` [Bafetinib (INNO-406)] the figure was 69.9%.
As to `CC(C)(S)[C@@H](N)C(=O)O` [Penicillamine], the cell viability turned out to be 88%.
With `CCCCCCCCCCC[C@@H](C[C@@H]1OC(=O)[C@H]1CCCCCC)OC(=O)[C@H](CC(C)C)NC=O` [Orlistat] the figure was 88%; with `CC1(C)CCC(CN2CCN(c3ccc(C(=O)NS(=O)(=O)c4ccc(NCC5CCOCC5)c([N+](=O)[O-])c4)c(Oc4cnc5[nH]ccc5c4)c3)CC2)=C(c2ccc(Cl)cc2)C1` [Venetoclax (ABT-199, GDC-0199)], 90.5%.
With `O=NO` [Sodium Nitrite] the figure was 87.8%.
As for `CC(=O)NO` [Acetohydroxamic acid], the figure is 94.1%; as for `CC(=O)N[C@@H](CCC(N)=O)C(=O)O` [Aceglutamide], 50.9%; as for `CC(C)(Oc1ccc(Cl)cc1)C(=O)O` [Clofibric Acid], 92.6%.
As to `CC(=O)[C@@]1(O)CC[C@H]2[C@@H]3CCC4=CC(=O)CCC4=C3[C@@H](c3ccc(N(C)C)cc3)C[C@@]21C` [Ulipristal], the cell viability stood at 89.1%.
With `COc1ccc(CCNCC(O)COc2cccc(C)c2)cc1OC` (configuration not stated) [Bevantolol hydrochloride] the figure was 88.2%.
As for `C[C@]12CC[C@@H]3c4ccc(OS(=O)(=O)O)cc4CC[C@H]3[C@@H]1CCC2=O` [Estropipate], the figure is 103%; as for `CN1CCN(c2c(F)cc3c(=O)c(C(=O)O)cn4c3c2OCN4C)CC1` [Marbofloxacin], 88.4%; as for `CC(C)(C)CC(C)(C)c1ccc(O)c(Cc2ccc(Cl)cc2Cl)c1` [Clofoctol], 92.3%.
Turning to `CCN(CC)CCOC(=O)C(c1ccccc1)c1ccccc1` [Adiphenine HCl], the cell viability was 93.3%.
For `OC(CCCN1CCCCC1)(c1ccccc1)c1ccccc1` [Diphenidol HCl], the cell viability came out at 93.8%.
Consider `CCOC(=O)c1ccc(N)cc1` [Benzocaine hydrochloride], for which the cell viability was 89.5%.
As for `CCOC(=O)c1ccc(N)cc1` [Benzocaine], the figure is 90.2%; as for `Nc1nc(NC2CC2)c2ncn([C@H]3C=C[C@@H](CO)C3)c2n1` [Abacavir], 91.5%.
With `Nc1nc(NC2CC2)c2ncn([C@H]3C=C[C@@H](CO)C3)c2n1` [Abacavir sulfate] the figure was 82.7%; with `O=C(O)CCCC[C@@H]1CCSS1` (racemic) [Thioctic acid], 96.1%; with `CN(Cc1cnc2nc(N)nc(N)c2n1)c1ccc(C(=O)N[C@@H](CCC(=O)O)C(=O)O)cc1` [Methotrexate], 97.6%.
For `CN(Cc1cnc2nc(N)nc(N)c2n1)c1ccc(C(=O)N[C@@H](CCC(=O)O)C(=O)O)cc1` [Methotrexate disodium], the cell viability turned out to be 87%.
With `CCOc1ccc2nc3cc(N)ccc3c(N)c2c1` [Ethacridine lactate monohydrate] the figure was 66.4%.
With `CSCCNc1nc(SCCC(F)(F)F)nc2c1ncn2[C@@H]1O[C@H](COP(=O)(O)OP(=O)(O)C(Cl)(Cl)P(=O)(O)O)[C@@H](O)[C@H]1O` [Cangrelor Tetrasodium] the figure was 80%.
With `CN(C)c1ccc(O)c2c1C[C@H]1C[C@H]3[C@H](N(C)C)C(O)=C(C(N)=O)C(=O)[C@@]3(O)C(O)=C1C2=O` [Minocycline HCl] the figure was 82.1%; with `CCCCCCCCCCCCCCCCOP(=O)([O-])OCC[N+](C)(C)C` [Miltefosine], 84.7%.
Take `C[N+](C)(C)CCOC(=O)CCC(=O)OCC[N+](C)(C)C` [Succinylcholine Chloride Dihydrate]: the cell viability stood at 97.2%.
With `CCCCCCCCCCCCCCCCOc1nc2ccc(C)cc2c(=O)o1` [Cetilistat] the figure was 95.9%; with `CN(C)[C@@H]1C(O)=C(C(N)=O)C(=O)[C@@]2(O)C(O)=C3C(=O)c4c(O)cccc4[C@@](C)(O)[C@H]3[C@H](O)[C@@H]12` [Oxytetracycline (Terramycin)], 84.7%; with `CN(C)[C@@H]1C(O)=C(C(N)=O)C(=O)[C@@]2(O)C(O)=C3C(=O)c4c(O)cccc4[C@@](C)(O)[C@H]3[C@H](O)[C@@H]12` [Oxytetracycline Dihydrate], 94.6%.
As for `COc1cc(OC)c(/C=C/S(=O)(=O)Cc2ccc(OC)c(NCC(=O)O)c2)c(OC)c1`, the figure is 80.3%; as for `CSc1ccc2c(c1)N(CCC1CCCCN1C)c1ccccc1S2` (configuration not stated) [Thioridazine hydrochloride], 67.1%.
With `CC/C(=C(/CC)c1ccc(O)cc1)c1ccc(O)cc1` [Diethylstilbestrol] the figure was 88.5%.
For `CC1=C(/C=C/C(C)=C/C=C/C(C)=C\C(=O)O)C(C)(C)CCC1` [Isotretinoin], the cell viability is 86.9%.
With `NC(N)=Nc1nc(CSCC/C(N)=N/S(N)(=O)=O)cs1` [Famotidine] the figure was 94.8%; with `Cc1cc(-c2ccccc2)nnc1NCCN1CCOCC1` [Minaprine dihydrochloride], 36.5%; with `COc1cc(NC(C)CCCN)c2ncccc2c1` (configuration not stated) [Primaquine Diphosphate], 72.2%.
